The values that follow come from the supplement of paper PMC10849652.

The chains behind the UniProt entries cited, without tags or fusion partners. Where a name states a change or a piece, a line headed by the entry shows the natural chain unless it says otherwise.
UniProt Q7Z7M0: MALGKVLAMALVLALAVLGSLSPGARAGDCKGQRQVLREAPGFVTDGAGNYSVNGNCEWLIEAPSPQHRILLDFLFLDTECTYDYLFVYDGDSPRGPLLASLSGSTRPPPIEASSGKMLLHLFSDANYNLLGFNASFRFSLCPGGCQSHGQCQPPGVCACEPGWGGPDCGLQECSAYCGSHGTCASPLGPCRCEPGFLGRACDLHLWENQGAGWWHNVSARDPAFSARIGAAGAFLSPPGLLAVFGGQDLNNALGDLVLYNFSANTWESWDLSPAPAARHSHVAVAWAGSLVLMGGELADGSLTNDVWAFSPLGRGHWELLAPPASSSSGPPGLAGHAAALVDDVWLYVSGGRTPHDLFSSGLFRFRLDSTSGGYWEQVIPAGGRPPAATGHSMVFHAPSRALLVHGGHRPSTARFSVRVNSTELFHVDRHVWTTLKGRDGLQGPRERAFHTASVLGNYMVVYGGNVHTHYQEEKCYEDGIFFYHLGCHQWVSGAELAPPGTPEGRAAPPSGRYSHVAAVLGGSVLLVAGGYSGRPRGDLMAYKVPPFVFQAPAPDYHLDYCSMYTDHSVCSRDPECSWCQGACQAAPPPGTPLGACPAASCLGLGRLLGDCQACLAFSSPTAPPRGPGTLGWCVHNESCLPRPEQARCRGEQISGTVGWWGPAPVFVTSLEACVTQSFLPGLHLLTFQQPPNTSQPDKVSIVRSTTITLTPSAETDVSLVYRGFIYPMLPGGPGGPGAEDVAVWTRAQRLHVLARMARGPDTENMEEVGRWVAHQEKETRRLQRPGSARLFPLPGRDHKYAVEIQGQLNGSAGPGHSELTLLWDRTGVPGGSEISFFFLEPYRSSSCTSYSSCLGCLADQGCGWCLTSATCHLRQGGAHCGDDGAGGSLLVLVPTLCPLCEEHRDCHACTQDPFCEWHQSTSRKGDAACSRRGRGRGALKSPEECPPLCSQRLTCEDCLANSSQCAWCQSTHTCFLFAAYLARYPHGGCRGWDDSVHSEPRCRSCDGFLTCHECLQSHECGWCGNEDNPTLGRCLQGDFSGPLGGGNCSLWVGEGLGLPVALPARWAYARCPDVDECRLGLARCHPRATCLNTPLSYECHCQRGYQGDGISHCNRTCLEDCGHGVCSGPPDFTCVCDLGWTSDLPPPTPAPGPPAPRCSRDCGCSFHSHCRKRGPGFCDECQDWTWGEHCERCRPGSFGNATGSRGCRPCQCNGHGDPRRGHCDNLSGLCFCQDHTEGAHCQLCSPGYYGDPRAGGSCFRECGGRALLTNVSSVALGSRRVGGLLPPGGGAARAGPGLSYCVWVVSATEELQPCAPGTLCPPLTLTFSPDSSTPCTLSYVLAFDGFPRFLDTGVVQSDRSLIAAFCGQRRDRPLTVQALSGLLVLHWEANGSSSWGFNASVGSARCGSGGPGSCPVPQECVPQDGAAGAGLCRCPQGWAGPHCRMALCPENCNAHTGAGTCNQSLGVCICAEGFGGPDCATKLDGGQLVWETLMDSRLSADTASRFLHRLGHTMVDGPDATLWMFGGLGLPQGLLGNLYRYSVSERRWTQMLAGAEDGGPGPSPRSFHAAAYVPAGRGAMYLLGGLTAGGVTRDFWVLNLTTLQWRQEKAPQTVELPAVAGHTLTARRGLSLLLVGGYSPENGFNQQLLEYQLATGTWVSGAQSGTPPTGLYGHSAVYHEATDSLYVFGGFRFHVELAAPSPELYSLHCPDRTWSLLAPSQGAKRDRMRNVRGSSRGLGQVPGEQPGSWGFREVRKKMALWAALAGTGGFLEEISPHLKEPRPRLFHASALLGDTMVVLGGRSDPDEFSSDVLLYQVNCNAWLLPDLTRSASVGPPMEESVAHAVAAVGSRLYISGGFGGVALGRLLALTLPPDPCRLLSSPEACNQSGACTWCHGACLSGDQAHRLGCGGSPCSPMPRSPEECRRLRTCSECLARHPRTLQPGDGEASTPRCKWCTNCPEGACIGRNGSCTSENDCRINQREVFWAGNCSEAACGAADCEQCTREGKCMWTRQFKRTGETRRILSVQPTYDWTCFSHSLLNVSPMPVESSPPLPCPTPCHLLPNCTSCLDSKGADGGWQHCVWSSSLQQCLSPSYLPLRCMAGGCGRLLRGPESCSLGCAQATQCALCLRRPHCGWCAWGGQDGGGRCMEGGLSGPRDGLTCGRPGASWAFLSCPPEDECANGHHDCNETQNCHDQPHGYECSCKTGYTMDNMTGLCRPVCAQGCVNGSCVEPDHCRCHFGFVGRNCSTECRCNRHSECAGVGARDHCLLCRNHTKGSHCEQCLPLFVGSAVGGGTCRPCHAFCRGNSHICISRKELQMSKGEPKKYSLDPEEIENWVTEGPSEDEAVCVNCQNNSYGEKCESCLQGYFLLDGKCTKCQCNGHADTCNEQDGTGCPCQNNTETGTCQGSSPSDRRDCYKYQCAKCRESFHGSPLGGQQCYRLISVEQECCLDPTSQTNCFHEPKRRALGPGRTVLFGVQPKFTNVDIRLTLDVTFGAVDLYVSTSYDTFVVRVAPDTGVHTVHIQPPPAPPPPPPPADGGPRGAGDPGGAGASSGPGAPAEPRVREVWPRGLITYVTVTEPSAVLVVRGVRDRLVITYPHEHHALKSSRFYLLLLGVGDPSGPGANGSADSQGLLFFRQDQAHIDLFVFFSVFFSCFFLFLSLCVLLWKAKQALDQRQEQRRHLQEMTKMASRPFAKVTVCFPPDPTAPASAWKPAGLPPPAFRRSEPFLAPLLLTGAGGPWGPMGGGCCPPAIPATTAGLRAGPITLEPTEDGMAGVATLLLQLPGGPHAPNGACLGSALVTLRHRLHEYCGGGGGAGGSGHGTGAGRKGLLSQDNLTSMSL
UniProt Q9H8H3: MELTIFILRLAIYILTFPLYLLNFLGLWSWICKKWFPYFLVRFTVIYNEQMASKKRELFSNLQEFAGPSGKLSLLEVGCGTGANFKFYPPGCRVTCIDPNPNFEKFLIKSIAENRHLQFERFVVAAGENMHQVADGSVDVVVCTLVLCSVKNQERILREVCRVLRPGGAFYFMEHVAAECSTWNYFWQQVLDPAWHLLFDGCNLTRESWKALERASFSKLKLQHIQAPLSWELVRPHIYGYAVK
UniProt Q5JRA6: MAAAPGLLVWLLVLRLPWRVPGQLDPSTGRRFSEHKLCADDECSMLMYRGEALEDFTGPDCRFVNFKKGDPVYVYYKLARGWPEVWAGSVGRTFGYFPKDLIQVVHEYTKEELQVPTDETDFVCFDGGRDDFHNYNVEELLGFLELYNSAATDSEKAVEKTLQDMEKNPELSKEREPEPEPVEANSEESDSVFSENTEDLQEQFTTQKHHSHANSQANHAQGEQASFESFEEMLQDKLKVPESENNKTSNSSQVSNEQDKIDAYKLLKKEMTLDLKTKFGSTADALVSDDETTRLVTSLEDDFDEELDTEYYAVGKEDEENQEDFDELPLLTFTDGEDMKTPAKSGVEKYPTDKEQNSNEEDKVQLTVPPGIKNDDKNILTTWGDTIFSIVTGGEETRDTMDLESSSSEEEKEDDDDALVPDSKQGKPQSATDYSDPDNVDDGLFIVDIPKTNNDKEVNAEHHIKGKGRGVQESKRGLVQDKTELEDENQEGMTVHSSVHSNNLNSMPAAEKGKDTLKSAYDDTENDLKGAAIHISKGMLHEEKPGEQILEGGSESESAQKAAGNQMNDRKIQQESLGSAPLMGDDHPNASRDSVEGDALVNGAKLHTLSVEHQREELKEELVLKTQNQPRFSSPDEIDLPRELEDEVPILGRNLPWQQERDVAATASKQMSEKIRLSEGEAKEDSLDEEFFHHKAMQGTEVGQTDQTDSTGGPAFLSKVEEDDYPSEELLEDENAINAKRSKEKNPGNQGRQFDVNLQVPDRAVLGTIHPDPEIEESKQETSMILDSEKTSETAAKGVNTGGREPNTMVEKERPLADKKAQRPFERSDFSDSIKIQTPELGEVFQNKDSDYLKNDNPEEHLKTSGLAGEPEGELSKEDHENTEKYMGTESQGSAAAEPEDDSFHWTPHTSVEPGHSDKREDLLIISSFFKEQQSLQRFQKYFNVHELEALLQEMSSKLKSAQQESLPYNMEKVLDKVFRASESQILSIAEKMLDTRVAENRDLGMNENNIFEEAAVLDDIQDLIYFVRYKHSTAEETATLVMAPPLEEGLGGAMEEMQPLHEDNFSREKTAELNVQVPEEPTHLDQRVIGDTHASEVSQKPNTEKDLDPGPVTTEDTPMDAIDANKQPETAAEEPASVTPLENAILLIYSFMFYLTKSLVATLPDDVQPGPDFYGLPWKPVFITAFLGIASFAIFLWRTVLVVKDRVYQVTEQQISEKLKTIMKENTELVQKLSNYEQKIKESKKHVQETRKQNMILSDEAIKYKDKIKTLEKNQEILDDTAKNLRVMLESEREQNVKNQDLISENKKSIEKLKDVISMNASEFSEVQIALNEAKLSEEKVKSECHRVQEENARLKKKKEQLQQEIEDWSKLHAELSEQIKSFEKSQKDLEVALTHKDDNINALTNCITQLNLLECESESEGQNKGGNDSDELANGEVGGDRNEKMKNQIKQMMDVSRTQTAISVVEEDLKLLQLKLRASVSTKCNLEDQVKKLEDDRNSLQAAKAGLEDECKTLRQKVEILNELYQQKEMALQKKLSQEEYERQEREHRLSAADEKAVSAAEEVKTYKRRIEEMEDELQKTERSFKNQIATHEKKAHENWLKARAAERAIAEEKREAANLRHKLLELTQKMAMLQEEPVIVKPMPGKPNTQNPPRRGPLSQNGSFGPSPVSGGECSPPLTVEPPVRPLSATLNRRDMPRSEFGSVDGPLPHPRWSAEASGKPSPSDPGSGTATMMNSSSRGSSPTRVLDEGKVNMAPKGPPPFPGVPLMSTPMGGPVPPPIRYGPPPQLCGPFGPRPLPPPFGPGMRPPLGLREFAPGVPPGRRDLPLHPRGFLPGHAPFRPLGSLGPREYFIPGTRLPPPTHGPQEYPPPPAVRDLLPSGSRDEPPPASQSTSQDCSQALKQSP
UniProt P51608, whole entry, looked up: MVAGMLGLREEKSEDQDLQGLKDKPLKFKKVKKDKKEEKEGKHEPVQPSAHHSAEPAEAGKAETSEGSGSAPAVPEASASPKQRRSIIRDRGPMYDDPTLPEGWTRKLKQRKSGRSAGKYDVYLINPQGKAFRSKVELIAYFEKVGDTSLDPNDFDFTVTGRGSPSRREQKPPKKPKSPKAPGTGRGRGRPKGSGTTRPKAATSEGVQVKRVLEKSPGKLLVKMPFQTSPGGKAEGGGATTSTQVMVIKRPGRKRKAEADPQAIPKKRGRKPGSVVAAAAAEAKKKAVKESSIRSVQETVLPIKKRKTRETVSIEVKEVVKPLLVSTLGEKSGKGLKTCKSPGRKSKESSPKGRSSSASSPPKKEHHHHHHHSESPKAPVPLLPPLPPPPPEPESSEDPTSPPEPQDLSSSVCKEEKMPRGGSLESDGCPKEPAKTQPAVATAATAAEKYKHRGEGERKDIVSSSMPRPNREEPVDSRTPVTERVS
UniProt Q9BV79: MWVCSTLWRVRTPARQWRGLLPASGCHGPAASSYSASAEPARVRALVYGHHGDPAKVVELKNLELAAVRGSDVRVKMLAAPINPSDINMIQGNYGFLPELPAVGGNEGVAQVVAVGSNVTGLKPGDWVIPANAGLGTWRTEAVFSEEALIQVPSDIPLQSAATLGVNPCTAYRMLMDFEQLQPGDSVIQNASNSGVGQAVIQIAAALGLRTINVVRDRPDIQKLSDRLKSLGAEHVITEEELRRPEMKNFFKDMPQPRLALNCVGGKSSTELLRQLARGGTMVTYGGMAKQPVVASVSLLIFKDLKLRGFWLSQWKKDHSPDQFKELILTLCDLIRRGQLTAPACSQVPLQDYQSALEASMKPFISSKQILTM
UniProt Q8IVS2: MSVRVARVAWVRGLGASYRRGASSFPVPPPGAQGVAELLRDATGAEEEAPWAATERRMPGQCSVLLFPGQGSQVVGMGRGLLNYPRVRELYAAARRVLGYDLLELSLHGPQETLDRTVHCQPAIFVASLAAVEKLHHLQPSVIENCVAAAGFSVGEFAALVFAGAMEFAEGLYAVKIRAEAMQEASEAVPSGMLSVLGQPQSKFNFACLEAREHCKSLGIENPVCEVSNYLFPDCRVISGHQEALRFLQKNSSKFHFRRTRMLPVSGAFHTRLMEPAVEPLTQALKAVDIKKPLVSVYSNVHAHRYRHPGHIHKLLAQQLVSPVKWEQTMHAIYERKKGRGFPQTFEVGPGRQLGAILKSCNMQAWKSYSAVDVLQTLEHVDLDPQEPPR
UniProt Q9Y3C7: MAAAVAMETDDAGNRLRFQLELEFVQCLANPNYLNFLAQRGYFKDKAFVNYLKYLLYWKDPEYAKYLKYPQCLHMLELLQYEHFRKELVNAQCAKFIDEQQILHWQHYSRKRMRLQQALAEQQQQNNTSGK
UniProt Q9H944: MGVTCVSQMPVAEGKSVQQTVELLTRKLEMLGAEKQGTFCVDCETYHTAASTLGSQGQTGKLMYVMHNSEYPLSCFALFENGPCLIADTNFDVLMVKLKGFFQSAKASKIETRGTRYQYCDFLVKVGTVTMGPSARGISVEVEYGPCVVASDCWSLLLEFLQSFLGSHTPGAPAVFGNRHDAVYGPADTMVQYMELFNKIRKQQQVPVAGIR

The list shows a part of the results.

Compound in this assay: c1cn2cc(-c3ccc4cn[nH]c4c3)nc(Nc3ccc(N4CCOCC4)cc3)c2n1 [entospletinib]
Kind of assay: log2 fold change, soluble protein after heating vs DMSO (PISA); higher = thermal stabilisation; K562 cells, 10 uM, 30 min; active = over 0.2 and 3.5 SD of the protein, either way, in both replicates (recomputed). In short, it runs like this: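 For each measurement, 10 μM compound was applied for 30 min to K562 cells at 2×10^6 cells/mL. Aliquots were heated for 3 min across 48°C-58°C, pooled, and extracted in PBS with 0.5% NP-40 at 4°C; the supernatant after 21,000xg for 90 min was soluble protein. This was quantified by TMTpro 16plex LC-MS/MS with channel sums equalised, and thermal stability was reported relative to control samples from duplicates, on a log2 fold-change scale.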
Turning to MFSD10 (UniProt Q14728), the log2 fold change is inactive: 0.048.
For the target MDH1 isoform 3 (UniProt P40925), the log2 fold change was inactive: -0.053.
Turning to MCM5 (UniProt P33992), the log2 fold change was inactive: -0.093.
On to MED15 (UniProt Q96RN5), for which the log2 fold change is inactive: -0.045.
As for METTL21A (UniProt Q8WXB1), the log2 fold change is inactive: -0.054.
In the case of MAZ isoform 2 (UniProt P56270) it was inactive: 0.135; in that of MCM3 isoform 2 (UniProt P25205), inactive: -0.023.
In the case of MCCC1 (UniProt Q96RQ3) it was inactive: 0.08.
MEGF8 (UniProt Q7Z7M0): the log2 fold change was inactive: 0.1.
In the case of MEMO1 (UniProt Q9Y316) it was inactive: 0.026.
In the case of MAX (UniProt P61244) it was inactive: 0.025.
In the case of MARS2 (UniProt Q96GW9) it was inactive: -0.007; in that of METTL7A (UniProt Q9H8H3), inactive: -0.017.
Turning to MED24 (UniProt O75448), the log2 fold change was inactive: -0.02.
In the case of MIA3 (UniProt Q5JRA6) it was inactive: -0.023; in that of MCEE (UniProt Q96PE7), inactive: 0.031; in that of MECP2 isoform 2 (UniProt P51608), inactive: 0.038.
As for MECR (UniProt Q9BV79), the log2 fold change is inactive: -0.008.
As for MEF2C isoform 5 (UniProt Q06413), the figure is inactive: 0.007.
Consider MFSD4B (UniProt Q5TF39), for which the log2 fold change is inactive: -0.096.
On to MED19 (UniProt A0JLT2), for which the log2 fold change was inactive: -0.01.
In the case of MCAT (UniProt Q8IVS2) it was inactive: -0.009.
In the case of MED31 (UniProt Q9Y3C7) it was inactive: -0.007; in that of METAP1 (UniProt P53582), inactive: 0.01.
As for MDP1 (UniProt Q86V88), the figure is inactive: 0.016; as for MEF2C isoform 2 (UniProt Q06413), inactive: -0.013; as for MED20 (UniProt Q9H944), inactive: -0.014.
Take MFAP1 (UniProt P55081): the log2 fold change was inactive: 0.048.
As to ME1 (UniProt P48163), the log2 fold change is inactive: -0.041.
